PubChem BioAssay AID1224830 – NIAID, 2016

Aim: 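Genes whose knock-down alters the TNF-alpha reporter response to LPS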 (primary screen)
Cell system: human THP-1 monocytic leukaemia cells, TNF dual-luciferase reporter clone, PMA-differentiated to macrophage-like cells
Knock-down reagent: siRNA pool against human genes, 50 nM
Timing: LPS for 4 h, given about 3 days after siRNA transfection
Treatment: bacterial LPS (TLR4 ligand), 10 ng/ml
Detection: 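TNF firefly reporter luminescence divided by renilla, normalised to the plate median, then turned into a robust z-score for each replicate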
Reading the numbers: TNF reporter robust z-score: higher = stronger TNF reporter response to LPS
Call rule: 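Each well counts as active if its z-score is over 2.8 or under -1.5; controls are left without a call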
The whole screen tested about 18,000 reagents; this is a random part of them. Of all reagents, about 2,900 (16%) got an active call. 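Calls are made per well; low scores hint the gene aids the LPS response, high scores that it dampens it.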 Entries without a mark were called inactive. Repeated entries: four replicate wells of each siRNA pool. No sequences are given here.

| Gene | TNF reporter robust z-score |
| --- | --- |
| RCN1 (reticulocalbin 1) | -0.22 |
| RCN1 (reticulocalbin 1) | 0.38 |
| RCN1 (reticulocalbin 1) | -0.3 |
| RCN1 (reticulocalbin 1) | -0.04 |
| TMEM139 (transmembrane protein 139) | 0.16 |
| TMEM139 (transmembrane protein 139) | 1.4 |
| TMEM139 (transmembrane protein 139) | 0.72 |
| TMEM139 (transmembrane protein 139) | 1.7 |
| TRIM49C (tripartite motif containing 49C) | -0.38 |
| TRIM49C (tripartite motif containing 49C) | -0.85 |
| TRIM49C (tripartite motif containing 49C) | 0.3 |
| TRIM49C (tripartite motif containing 49C) | 1.78 |
| TLCD5 (TLC domain containing 5) | 0.75 |
| TLCD5 (TLC domain containing 5) | 0.19 |
| TLCD5 (TLC domain containing 5) | 0.5 |
| TLCD5 (TLC domain containing 5) | -0.16 |
| SPATS2L (spermatogenesis associated serine rich 2 like) | -0.47 |
| SPATS2L (spermatogenesis associated serine rich 2 like) | 0 |
| SPATS2L (spermatogenesis associated serine rich 2 like) | -0.35 |
| SPATS2L (spermatogenesis associated serine rich 2 like) | 0.85 |
| ATG4B (autophagy related 4B cysteine peptidase) | 0.28 |
| ATG4B (autophagy related 4B cysteine peptidase) | 2.52 |
| ATG4B (autophagy related 4B cysteine peptidase) | 0.41 |
| ATG4B (autophagy related 4B cysteine peptidase) | 1.44 |
| TAS2R1 (taste 2 receptor member 1) | 0.24 |
| TAS2R1 (taste 2 receptor member 1) | 0.05 |
| TAS2R1 (taste 2 receptor member 1) | 0.47 |
| TAS2R1 (taste 2 receptor member 1) | 0.08 |
| SPIN3 (spindlin family member 3) | 0.83 |
| SPIN3 (spindlin family member 3) | 0.21 |
| SPIN3 (spindlin family member 3) | 2.59 |
| SPIN3 (spindlin family member 3) | -0.2 |
| HECTD3 (HECT domain E3 ubiquitin protein ligase 3) | -0.3 |
| HECTD3 (HECT domain E3 ubiquitin protein ligase 3) | -0.18 |
| HECTD3 (HECT domain E3 ubiquitin protein ligase 3) | 0.32 |
| HECTD3 (HECT domain E3 ubiquitin protein ligase 3) | -0.45 |
| AQP9 (aquaporin 9) | -0.64 |
| AQP9 (aquaporin 9) | 1.65 |
| AQP9 (aquaporin 9) | 0.81 |
| AQP9 (aquaporin 9) | 1.54 |
| ERLIN1 (ER lipid raft associated 1) | 0.91 |
| ERLIN1 (ER lipid raft associated 1) | 2.08 |
| ERLIN1 (ER lipid raft associated 1) | 0.14 |
| ERLIN1 (ER lipid raft associated 1) | 1.52 |
| RAPGEF4 (Rap guanine nucleotide exchange factor 4) | -0.13 |
| RAPGEF4 (Rap guanine nucleotide exchange factor 4) | 0.22 |
| RAPGEF4 (Rap guanine nucleotide exchange factor 4) | 3.62 (active) |
| RAPGEF4 (Rap guanine nucleotide exchange factor 4) | -0.32 |
| HSF1 (heat shock transcription factor 1) | 0.86 |
| HSF1 (heat shock transcription factor 1) | 1.35 |
| HSF1 (heat shock transcription factor 1) | 0.85 |
| HSF1 (heat shock transcription factor 1) | 1.83 |
| TIMM17A (translocase of inner mitochondrial membrane 17A) | 1.7 |
| TIMM17A (translocase of inner mitochondrial membrane 17A) | 1.26 |
| TIMM17A (translocase of inner mitochondrial membrane 17A) | 0.04 |
| TIMM17A (translocase of inner mitochondrial membrane 17A) | 2.75 |

Records above with an active call (1):
| Gene | TNF reporter robust z-score |
| --- | --- |
| RAPGEF4 (Rap guanine nucleotide exchange factor 4) | 3.62 (active) |

More entries follow.
| Gene | TNF reporter robust z-score |
| --- | --- |
| MYBBP1A (MYB binding protein 1a) | 0.82 |
| MYBBP1A (MYB binding protein 1a) | 0.79 |
| MYBBP1A (MYB binding protein 1a) | 0.67 |
| MYBBP1A (MYB binding protein 1a) | 1.65 |
| RALGAPA1 (Ral GTPase activating protein catalytic subunit alpha 1) | -0.99 |
| RALGAPA1 (Ral GTPase activating protein catalytic subunit alpha 1) | -1.1 |
| RALGAPA1 (Ral GTPase activating protein catalytic subunit alpha 1) | -1.19 |
| RALGAPA1 (Ral GTPase activating protein catalytic subunit alpha 1) | -0.11 |
| TRARG1 (trafficking regulator of GLUT4 (SLC2A4) 1 (gene/pseudogene)) | 0.33 |
| TRARG1 (trafficking regulator of GLUT4 (SLC2A4) 1 (gene/pseudogene)) | 1.05 |
| TRARG1 (trafficking regulator of GLUT4 (SLC2A4) 1 (gene/pseudogene)) | -0.03 |
| TRARG1 (trafficking regulator of GLUT4 (SLC2A4) 1 (gene/pseudogene)) | 1.97 |
| KRTAP6-3 (keratin associated protein 6-3) | -0.71 |
| KRTAP6-3 (keratin associated protein 6-3) | -0.46 |
| KRTAP6-3 (keratin associated protein 6-3) | -1.04 |
| KRTAP6-3 (keratin associated protein 6-3) | -0.08 |
| RPP21 (ribonuclease P subunit p21) | -0.55 |
| RPP21 (ribonuclease P subunit p21) | -0.5 |
| RPP21 (ribonuclease P subunit p21) | -0.72 |
| RPP21 (ribonuclease P subunit p21) | -0.36 |
| HMGN3 (high mobility group nucleosomal binding domain 3) | -1.03 |
| HMGN3 (high mobility group nucleosomal binding domain 3) | -0.02 |
| HMGN3 (high mobility group nucleosomal binding domain 3) | -0.2 |
| HMGN3 (high mobility group nucleosomal binding domain 3) | -0.7 |
| MAGI1 | -0.56 |
| MAGI1 | -1.05 |
| MAGI1 | -0.75 |
| MAGI1 | -0.26 |
| CAPN1 (calpain 1) | -0.03 |
| CAPN1 (calpain 1) | 1.54 |
| CAPN1 (calpain 1) | 1.97 |
| CAPN1 (calpain 1) | 0.69 |
| RPL10L (ribosomal protein L10 like) | 0.32 |
| RPL10L (ribosomal protein L10 like) | -0.19 |
| RPL10L (ribosomal protein L10 like) | -0.3 |
| RPL10L (ribosomal protein L10 like) | -0.02 |
| CFH (complement factor H) | 1.53 |
| CFH (complement factor H) | 1.78 |
| CFH (complement factor H) | 1.44 |
| CFH (complement factor H) | 0.89 |
| FOXJ2 (forkhead box J2) | -1.09 |
| FOXJ2 (forkhead box J2) | 0.11 |
| FOXJ2 (forkhead box J2) | -0.11 |
| FOXJ2 (forkhead box J2) | 0.4 |
| PDE3A (phosphodiesterase 3A) | 2.33 |
| PDE3A (phosphodiesterase 3A) | 2.78 |
| PDE3A (phosphodiesterase 3A) | 1.21 |
| PDE3A (phosphodiesterase 3A) | 2.07 |
| WFDC2 (WAP four-disulfide core domain 2) | 0.39 |
| WFDC2 (WAP four-disulfide core domain 2) | 0.14 |
| WFDC2 (WAP four-disulfide core domain 2) | -1.25 |
| WFDC2 (WAP four-disulfide core domain 2) | -0.38 |
| BIRC6 (baculoviral IAP repeat containing 6) | -0.08 |
| BIRC6 (baculoviral IAP repeat containing 6) | 0.14 |
| BIRC6 (baculoviral IAP repeat containing 6) | 0.92 |
| BIRC6 (baculoviral IAP repeat containing 6) | 0.05 |
